Measured values reported in article doi:10.1101/2023.03.17.532973 (bioRxiv, 2023).
No constants are given. Whether binding was seen depends on the method and setting. Some binding calls cover weakened binding; strength is not graded here.

Biological target: human cytosolic serine hydroxymethyltransferase (SHMT1), wild type (human) (UniProt P34896)
Experiment: cryo-EM structure

binding: binds
B1: human cytosolic serine hydroxymethyltransferase (SHMT1), wild type (enzyme)
chain: DADLWSSHDKMLAQPLKDSDVEVYNIIKKESNRQRVGLELIASENFASRAVLEALGSCLNNKYSEGYPGQRYYGGTEFIDELETLCQKRALQAYKLDPQCWGVNVQPYSGSPANFAVYTALVEPHGRIMGLDLPDGGHLTHGFMTDKKKISATSIFFESMPYKVNPDTGYINYDQLEENARLFHPKLIIAGTSCYSRNLEYARLRKIADENGAYLMADMAHISGLVAAGVVPSPFEHCHVVTTTTHKTLRGCRAGMIFYRKGVKSVDPKTGKEILYNLESLINSAVFPGLQGGPHNHAIAGVAVALKQAMTLEFKVYQHQVVANCRALSEALTELGYKIVTGGSDNHLILVDLRSKGTDGGRAEKVLEACSIACNKNTCPGDRSALRPSGLRLGTPALTSRGLLEKDFQKVAHFIHRGIELTLQIQSDTGVRATLKEFKERLAGDKYQAAVQALREEVESFASLFPLPGL
